Results deposited as PubChem BioAssay AID686938 (Drosophila RNAi Screening Center, 2013).
The screen tested about 23,000 reagents; below is an unselected part of those that have a named target and a result. Over the whole deposit, 75 (0.33%) are marked active. 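Raw plate signals without normalisation; calls rest on plate z-scores that were not deposited; ratio present for only 364 wells.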 Reagents against one gene are numbered here. Names joined by + are all predicted targets of the reagent. The record does not give: the dose of the treatment.

- Purpose: 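Knock-downs reducing store-operated calcium influx in Drosophila cells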 (primary screen)
- System: Drosophila S2R+ cells
- Reagents: long dsRNA against Drosophila genes, about 0.25 µg dsRNA per well, roughly 10,000 cells
- Duration: 5 days of knock-down before the calcium assay
- Treatment: thapsigargin (SERCA pump blocker) to empty calcium stores; entry signal taken 4 min after adding it
- Read-out: 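Duplicate raw fluo-4 intensities per well from a plate reader, at rest and four minutes after thapsigargin emptied calcium stores; entry-to-rest ratio filled for only some wells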
- Reading the numbers: calcium entry signal: higher = stronger calcium signal after store depletion; entry to resting ratio: higher = more calcium entry relative to resting level; resting calcium signal: higher = higher resting calcium signal
- Call rule: 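Hit if the duplicate-averaged plate z-score for entry over resting signal is under −3; wells with weak total dye signal (Fmax z < −2) or more than 5 off-targets removed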
- Meaning of the calls: active = strongly reduced calcium entry; inactive = no strong reduction

Against CG3032, the entry reads calcium entry signal, replicate 1 (fluorescence units) = 3.48e7; calcium entry signal, replicate 2 (fluorescence units) = 4.15e7; resting calcium signal, replicate 1 (fluorescence units) = 1.68e7; resting calcium signal, replicate 2 (fluorescence units) = 2.00e7; inactive. With knock-down of Vps53 the results were calcium entry signal, replicate 1 (fluorescence units) = 4.44e7; resting calcium signal, replicate 1 (fluorescence units) = 2.53e7; inactive. With knock-down of Rgk3 #1 the results were calcium entry signal, replicate 1 (fluorescence units) = 2.76e7; calcium entry signal, replicate 2 (fluorescence units) = 4.13e7; resting calcium signal, replicate 1 (fluorescence units) = 1.47e7; resting calcium signal, replicate 2 (fluorescence units) = 2.02e7; inactive. Depletion of Rgk3 #2 gave: calcium entry signal, replicate 1 (fluorescence units) = 5.06e7; calcium entry signal, replicate 2 (fluorescence units) = 4.67e7; resting calcium signal, replicate 1 (fluorescence units) = 2.44e7; resting calcium signal, replicate 2 (fluorescence units) = 2.00e7; inactive. Rgk3 #3 showed calcium entry signal, replicate 1 (fluorescence units) = 4.23e7; calcium entry signal, replicate 2 (fluorescence units) = 4.67e7; resting calcium signal, replicate 1 (fluorescence units) = 2.07e7; resting calcium signal, replicate 2 (fluorescence units) = 2.01e7; inactive. With knock-down of Rgk3 #4 the results were calcium entry signal, replicate 1 (fluorescence units) = 3.97e7; calcium entry signal, replicate 2 (fluorescence units) = 4.51e7; resting calcium signal, replicate 1 (fluorescence units) = 1.99e7; resting calcium signal, replicate 2 (fluorescence units) = 1.98e7; inactive.

After knock-down of Rad9, the screen gave calcium entry signal, replicate 1 (fluorescence units) = 4.20e7; calcium entry signal, replicate 2 (fluorescence units) = 4.76e7; resting calcium signal, replicate 1 (fluorescence units) = 1.80e7; resting calcium signal, replicate 2 (fluorescence units) = 3.45e7; inactive. SppL showed calcium entry signal, replicate 1 (fluorescence units) = 4.55e7; calcium entry signal, replicate 2 (fluorescence units) = 6.69e7; resting calcium signal, replicate 1 (fluorescence units) = 2.18e7; resting calcium signal, replicate 2 (fluorescence units) = 2.88e7; inactive. Silencing of Rbcn-3A resulted in: calcium entry signal, replicate 1 (fluorescence units) = 3.37e7; calcium entry signal, replicate 2 (fluorescence units) = 4.43e7; resting calcium signal, replicate 1 (fluorescence units) = 2.28e7; resting calcium signal, replicate 2 (fluorescence units) = 2.97e7; inactive. For Ir25a, the values are calcium entry signal, replicate 1 (fluorescence units) = 2.66e7; calcium entry signal, replicate 2 (fluorescence units) = 3.07e7; resting calcium signal, replicate 1 (fluorescence units) = 1.37e7; resting calcium signal, replicate 2 (fluorescence units) = 1.47e7; inactive. CG14419 showed calcium entry signal, replicate 1 (fluorescence units) = 6.64e7; calcium entry signal, replicate 2 (fluorescence units) = 5.80e7; entry to resting ratio 2.2; resting calcium signal, replicate 1 (fluorescence units) = 3.01e7; resting calcium signal, replicate 2 (fluorescence units) = 2.30e7; inactive. With knock-down of CG14929 + CG14930 the results were calcium entry signal, replicate 1 (fluorescence units) = 3.48e7; calcium entry signal, replicate 2 (fluorescence units) = 4.87e7; resting calcium signal, replicate 1 (fluorescence units) = 1.71e7; resting calcium signal, replicate 2 (fluorescence units) = 2.02e7; inactive.

2 of these entries, reformatted.
{"gene": "Rgk3", "reagent no.": 4, "calcium entry signal, replicate 1 (fluorescence units)": 3.97e7, "calcium entry signal, replicate 2 (fluorescence units)": 4.51e7, "resting calcium signal, replicate 1 (fluorescence units)": 1.99e7, "resting calcium signal, replicate 2 (fluorescence units)": 1.98e7, "activity call": "inactive"}
{"gene": "Rad9", "reagent no.": 1, "calcium entry signal, replicate 1 (fluorescence units)": 4.20e7, "calcium entry signal, replicate 2 (fluorescence units)": 4.76e7, "resting calcium signal, replicate 1 (fluorescence units)": 1.80e7, "resting calcium signal, replicate 2 (fluorescence units)": 3.45e7, "activity call": "inactive"}
